In the data set the test system is panel of 30 multi-resistant clinical isolates of Gram-positive and Gram-negative bacteria. The data set can be described thus: MIC screening, ranges over the panel of clinical isolates. In kind it is cell-based. The conditions noted are these: RBC EC50 / MIC; for SI against S. aurues, E. faecium and E. coli: multi-resistant clinical isolates, range. The procedure:
Working solutions of the test derivatives were prepared with up to 100% DMSO and stored at −20° C. If necessary, the solutions were heated to 40-80° C. before testing to facilitate complete dissolution. Double-distilled water was used in all dilutions prepared. […] A microdilution susceptibility test was used for MIC determination according to Clinical and Laboratory Standards Institute, “Methods for Dilution Antimicrobial Sisceptibility Tests for Bacteria That Graw Aerobically”, Approved Standard M07-A9, edition 2012, with modifications as described by Igumnova et al (Bioorg Med Chem, 2016, 24 (22), 5884-5894).
Briefly, the bacterial inoculum was adjusted to approximately 2.5-3×10^4 cells/mL in Mueller-Hinton broth (MHB, Difco Laboratories, USA), and incubated in a ratio of 1:1 with test derivatives in polystyrene 96-well flat-bottom microplates (NUNC, Roskilde, Denmark). Positive growth control (without test derivatives) and negative control (without bacteria) were included. The reference antibiotic was oxytetracycline hydrochloride (Sigma Aldrich, Saint Louis, Mo., USA). The microplates were incubated in an EnVision microplate reader (Perkin-Elmer, Turku, Finland) placed in an incubator set to 35° C. for 48 h. The MIC value was defined as the lowest concentration of derivative resulting in no bacterial growth as determined by OD600 measurement. All derivatives were tested in three parallels.
The MIC was determined as explained above with some exceptions; working solutions of test derivatives were prepared from concentrated DMSO stocks stored at room temperature, the density of the bacterial inoculum was increased 40× to 1-1.2×10^6 cells/mL, enterococci were incubated in Brain Heart Infusion broth (BHIB, Difco Laboratories, USA), the microplates were incubated for 24 h, and the derivatives were tested in four parallels.

Each structure is given as a SMILES string.

As to `NCCCCN1C(=O)N(CCCCN)C(=O)C(Cc2cc(Br)cc(Br)c2)(Cc2cc(Br)cc(Br)c2)C1=O` [7(ii)], the “SI against S. aurues, E. faecium and E. coli” value (“SI against S. aurues” for short) is 10-21. On to `N=C(N)NCCCCN1C(=O)N(CCCCNC(=N)N)C(=O)C(Cc2ccc(F)c3ccccc23)(Cc2ccc(F)c3ccccc23)C1=O` [8(v), 1,1′-(4,4′-(5,5-bis((4-fluoronaphthalen-1-yl)methyl)-2,4,6-trioxodihydropyrimidine-1,3(2H,4H)-diyl)bis(butane-4,1-diyl))diguanidine], for which the “SI against the multi-resistant clinical isolates of S. aureus” value was found to be 44; the “SI against S. aurues” value is given as 11-44.

As for `CC(C)(C)c1ccc(CC2(Cc3ccc(C(C)(C)C)cc3)C(=O)N(CCCCN)C(=O)N(CCCCN)C2=O)cc1` [Compound 7(i), 1,3-bis(4-aminobutyl)-5,5-bis(4-tertbutylbenzyl) pyrimidin-2,4,6(1H,3H,5H)-trione], the “SI against S. aurues” value is on record as 18-36. Turning to `CC(C)(C)c1ccc(CC2(Cc3ccc(C(C)(C)C)cc3)C(=O)N(CCCCNC(=N)N)C(=O)N(CCCCNC(=N)N)C2=O)cc1` [Compound 8(i), 1,1′-(4,4′-(5,5-bis(4-tert-butylbenzyl)-2,4,6-trioxodihydropyrimidine-1,3(2H,4H)-diyl)bis(butane-4,1-diyl))diguanidine], the “SI against S. aurues” value was 19-39.

The record behind these values is US11072588B2, “Barbituric acid derivatives comprising cationic and lipophilic groups” (UNIVERSITETET I TROMSØ—NORGES ARKTISKE UNIVERSITET, priority 2017, dated 2021).
